From PubChem BioAssay AID1671190 (National Center for Advancing Translational Sciences (NCATS), 2021)
Several values for one entry are separate records, joined by “and”; a condition that tells them apart may be missing. Equal entries are not always repeated. The whole screen tested about 580,000 compounds, of which about 6,100 (1.1%) were called active. This list was built around the results that the source calls inconclusive (neither active nor inactive); the mix of calls is not that of the screen. The call rests on the fitted dose curve; in most records, active means well fitted inhibition curve with a large enough effect; inconclusive means small, poorly fitted or top-dose-only effect, or another doubt; inactive means no such curve, though single readings can be large or run the other way. A potency beside an inconclusive call is a rough fit, not a confirmed value.

Amino acid sequences for entries named in this document (tags omitted). A change or cut given only in a name is not applied to a line headed by its entry.
UniProt P18054: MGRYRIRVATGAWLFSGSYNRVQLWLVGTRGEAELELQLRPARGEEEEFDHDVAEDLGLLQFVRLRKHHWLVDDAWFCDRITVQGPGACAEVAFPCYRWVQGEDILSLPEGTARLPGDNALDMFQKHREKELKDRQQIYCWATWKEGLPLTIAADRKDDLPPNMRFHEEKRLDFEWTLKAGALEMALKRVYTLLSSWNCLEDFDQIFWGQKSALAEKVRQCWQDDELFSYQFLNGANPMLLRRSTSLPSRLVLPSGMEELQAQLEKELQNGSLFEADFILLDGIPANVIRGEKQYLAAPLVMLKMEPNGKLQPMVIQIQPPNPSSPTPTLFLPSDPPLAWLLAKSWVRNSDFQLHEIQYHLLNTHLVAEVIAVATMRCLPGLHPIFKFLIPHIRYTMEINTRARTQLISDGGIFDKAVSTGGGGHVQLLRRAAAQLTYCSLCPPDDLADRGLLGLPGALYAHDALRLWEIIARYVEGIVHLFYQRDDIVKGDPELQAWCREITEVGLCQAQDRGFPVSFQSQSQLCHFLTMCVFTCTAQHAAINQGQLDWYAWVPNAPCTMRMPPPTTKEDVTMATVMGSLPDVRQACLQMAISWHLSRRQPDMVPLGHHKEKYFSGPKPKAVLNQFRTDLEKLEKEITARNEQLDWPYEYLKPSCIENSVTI

Biological target: Polyunsaturated fatty acid lipoxygenase ALOX12 (Homo sapiens) (UniProt P18054)
Experiment: Primary qHTS assay for inhibitors of human arachidonate 12S-lipoxygenase (ALOX12): Round 2
Details: purified 12hLO, xylenol orange hydroperoxide absorbance; series mostly up to 108 µM
In short: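 Purified human 12hLO at 150 nM in 25 mM Hepes, 0.01% Triton X-100, pH 7.0, preincubated 15 min at room temperature with compound. Reaction started with 40 uM arachidonic acid, 30 min at room temperature. Hydroperoxide measured by Fe-xylenol orange, 573/405 nm absorbance ratio.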
Potency means the concentration at half of the fitted maximal effect.

Compound	Potency
O=C(/C=C/c1c(F)cccc1F)c1cc2ccccc2o1	inconclusive: 39.8 µM [inhibitor, partial curve, poor fit]
CCc1cccc2c(C(CC(=O)NCc3ccco3)c3cccc([N+](=O)[O-])c3)c[nH]c12 (configuration not stated)	inconclusive: 20 µM [inhibitor, full curve]
CCc1nnc(NC(=O)c2cccc(S(=O)(=O)N3CC(c4ccccc4)CC3=O)c2)s1 (configuration not stated)	inactive
O=C(Cn1cnc([N+](=O)[O-])n1)N/N=C/c1cc(Cl)ccc1O	inconclusive: 44.7 µM [inhibitor, partial curve, poor fit]
COc1ccc(C2=NCCc3cc(OC)c(OC)cc32)cc1OC	inactive
CCNc1c(NC(=O)Nc2cccc(C)c2)c(=O)oc2ccccc12	inconclusive: 89.1 µM [inhibitor, single point]
CN1CCN(c2ccccc2NC(=O)c2ccc(OCc3ccccc3)cc2)CC1	inconclusive: 56.2 µM [inhibitor, partial curve, poor fit]
CCn1c2ccccc2c2c3ncc4cccn4c3ccc21	inactive
CCCCCCCCC(=O)NC(NC(=S)N1CCOCC1)C(Cl)(Cl)Cl (configuration not stated)	inconclusive: 31.6 µM [inhibitor, partial curve, poor fit]
O=[N+]([O-])c1ccc(SCCc2ccncc2)cc1	inconclusive: 3.98 µM [inhibitor, full curve, poor fit] and inconclusive: 28.2 µM [inhibitor, partial curve, poor fit]
COc1ccc(CC(=O)N2CC[C@H]3CC(=O)N(Cc4ccccc4)CC[C@H]3C2)cc1	inactive
O=C(CCCN1C(=O)C(c2ccccc2)Oc2cccnc21)Nc1ccccc1C(F)(F)F (configuration not stated)	inactive
COc1ccc2c(c1)c(C(C(=O)O)N1CCC(C(=O)O)CC1)cn2CC(=O)O (configuration not stated)	inconclusive: 25.1 µM [inhibitor, partial curve, poor fit]
CN1CCc2c(c(N3CCOCC3)nc3sc(C(N)=O)c(N)c23)C1	inconclusive: 44.7 µM [inhibitor, partial curve, poor fit]
CCc1c(C)sc(NC(=O)c2ccco2)c1C(=O)N1CCCCC1	inconclusive: 44.7 µM [inhibitor, partial curve, poor fit]
Cc1cc(S(=O)(=O)N2CCCC2)ccc1OCC(=O)N1CCOCC1	inactive
COC(=O)[C@@H]1Cc2c([nH]c3ccccc23)[C@H]2C[C@H](N3CCCCC3)C[C@@H](c3ccccc3F)N21	inconclusive: 56.2 µM [inhibitor, single point]
Cc1cc(COc2ccc(C(=O)c3ccc(Cl)cc3)cc2)no1	inconclusive: 126 µM [inhibitor, single point]
Cc1ccccc1C(=O)Nc1ccnn1C1CCN(CC2CC=CCC2)CC1 (configuration not stated)	inactive
Cc1ccc(CNC(=O)Nc2ccc(F)cc2F)n1C	inconclusive: 35.5 µM [inhibitor, single point]
N=c1n(CC(=O)c2ccc([N+](=O)[O-])cc2)c2ccccc2n1Cc1ccccc1	inconclusive: 70.8 µM [inhibitor, partial curve, poor fit]
O=C(NC12CC3CC(CC(C3)C1)C2)c1ccc(S(=O)(=O)N2CCOCC2)cc1	inconclusive: 100 µM [inhibitor, single point]
O=c1[nH]c(=S)[nH]c2c1C(c1ccccc1)OC(C1CCCCC1)C2 (configuration not stated)	inconclusive: 63.1 µM [inhibitor, partial curve, poor fit]

Compound	Potency
CN1CCCC(OC(=O)c2cc(F)c(F)c(F)c2F)C1 (configuration not stated)	inconclusive: 100 µM [inhibitor, single point]
Cc1cccc(C(=O)NC2(C(F)(F)F)N=C(c3ccccc3)N(Cc3ccco3)C2=O)c1 (configuration not stated)	inconclusive: 141 µM [inhibitor, single point]
CN(C)CCNC(=O)c1nc2nc(-c3ccccc3)c(-c3cccc(CO)c3)cc2n1C	inconclusive: 44.7 µM [inhibitor, full curve]
Fc1ccccc1CNC1C2CC3CC(C2)CC1C3 (configuration not stated)	inconclusive: 35.5 µM [inhibitor, partial curve, poor fit]
C[C@H](CO)N1C[C@H](C)[C@@H](CN(C)S(=O)(=O)c2cccs2)Oc2ccc(NC(=O)Cc3ccccc3)cc2C1=O	inconclusive: 39.8 µM [inhibitor, partial curve, poor fit]
Cc1cc(NCCCn2ccnc2)n2nc(C)c(-c3ccc(Cl)cc3)c2n1	inactive
COc1ccc(N2CCN(C(=O)COc3ccccc3)CC2)cc1	inactive
O=C(N/N=C/c1cccn1-c1ccc([N+](=O)[O-])cc1)C(O)c1ccccc1 (configuration not stated)	inactive
Cc1ccccc1NC(=O)COc1ncnc2ccccc12	inactive
CN(Cc1ccc(C(=O)NCC(F)(F)F)cc1)C(=O)c1ccccc1	inactive
CCOC(=O)CCN(C)Cc1cccc(OC)c1OC	inactive
COc1ccc(Nc2nc(C(=O)OCC(=O)c3ccc(Cl)cc3)cs2)cc1	inconclusive: 5.01 µM [inhibitor, full curve, poor fit]
O=C(c1ccsc1)N1CCC2(CC1)NC(=O)N(Cc1cccc(Cl)c1)C2=O	inconclusive: 22.4 µM [inhibitor, partial curve, poor fit]
S=C(c1c[nH]c2ccccc12)N1CCOCC1	inactive
Cc1cc2oc(=O)cc(CN3C(=O)c4ccccc4S3(=O)=O)c2cc1C(C)C	inconclusive: 79.4 µM [inhibitor, single point]
Cc1ccc(-c2noc([C@@H]3Cc4nc[nH]c4CN3C(=O)NC3CCCCC3)n2)cc1	inconclusive: 28.2 µM [inhibitor, full curve, poor fit]
C=CCn1c(-c2cc3c(s2)CCC(CC)C3)n[nH]c1=S (configuration not stated)	inconclusive: 50.1 µM [inhibitor, partial curve, poor fit]
CCOC(=O)C1=C(Nc2ccccc2)CSC1	inconclusive: 79.4 µM [inhibitor, single point]
CCOC(=O)C1=C(C)N=C2SCCC(=O)N2C1c1ccc(C(C)(C)C)cc1 (configuration not stated)	inconclusive: 5.62 µM [inhibitor, partial curve, poor fit]
CCOC(=O)N1CCN(C(=O)CSc2nnc(C3COc4ccccc4O3)o2)CC1 (configuration not stated)	inactive
S=C(NCCc1ccccc1)N1CCN(C23CC4CC(CC(C4)C2)C3)CC1	inactive
CC1(CNCc2ccccc2)COc2ccc(C(=O)NCc3ccncc3)cc2N1 (configuration not stated)	inactive
Cc1c(C(=O)N2CCN(c3ccc(F)cc3)CC2)oc2c1C(=O)CC(C)(C)C2	inconclusive: 70.8 µM [inhibitor, single point]

Compound	Potency
CCc1cccc(CC)c1NC(=S)Nc1ccc2cn[nH]c2c1	inconclusive: 56.2 µM [inhibitor, partial curve, poor fit]
CCCCNc1nc(=S)n(-c2ccccc2)c(C)c1C(C)=O	inconclusive: 39.8 µM [inhibitor, partial curve]
COc1ccc(-c2nnc(SC(C)C(=O)NC3CCCCC3)o2)cc1OC (configuration not stated)	inactive
COc1cc(NC(=O)CNc2cccc(S(=O)(=O)N3CCCC3)c2)cc(OC)c1	inactive
OCC#CCSc1nnc(-c2ccc(Br)cc2)o1	inconclusive: 39.8 µM [inhibitor, partial curve, poor fit]
COc1ccc(C(=S)NCS(=O)(=O)c2ccc(C)cc2)cc1	active: 15.8 µM
CCOc1ccc(N2Nc3n[nH]c(N)c3N2)cc1	inactive
CCCCc1ccc(S(=O)(=O)N/N=C(/C)c2ccncc2)cc1	inconclusive: 50.1 µM [inhibitor, partial curve, poor fit]
Cc1cc(NS(=O)(=O)c2ccccc2)c(C)c(Cl)c1O	inconclusive: 44.7 µM [inhibitor, partial curve, poor fit]
Fc1cccc(OCc2nnc(-c3ccc(Br)cc3)o2)c1	inconclusive: 8.91 µM [inhibitor, full curve, poor fit]
COc1ccc(OC)c(Nc2nc(NCC(C)O)nc3c2cnn3-c2ccccc2)c1 (configuration not stated)	inactive
O=C(c1ccccc1F)N1CCN(c2ccc([N+](=O)[O-])c3ncccc23)CC1	inactive
CSC1=N/C(=C\c2c(F)cccc2Cl)C(=O)S1	inconclusive: 100 µM [inhibitor, partial curve, poor fit]
CC(c1ccccc1)N1C(=O)CC(Sc2ncccc2C(=O)O)C1=O (configuration not stated)	inactive
CCCCOc1ccc(/C=C/C(=O)N(CC)CC(=O)Nc2ccc3c(c2)OCCO3)cc1OC	inactive
Cc1ccc(NS(=O)(=O)c2cc3[nH]c(=O)c(=O)[nH]c3cc2C)cc1Cl	inconclusive: 50.1 µM [inhibitor, partial curve, poor fit]
COc1ccc(-c2cc(C(=O)NC(C(=O)O)C(C)C)c(C)o2)cc1OC (configuration not stated)	inconclusive: 0.891 µM [inhibitor, partial curve, poor fit]
Cc1[nH]c(C)c(S(=O)(=O)N2CCN(c3ccc(Cl)cc3)CC2)c1C(=O)N1CCCC1	inconclusive: 63.1 µM [inhibitor, partial curve, poor fit]
CCN(C(=O)CSc1nnnn1-c1ccccc1)c1c(N)n(Cc2ccccc2)c(=O)[nH]c1=O	inconclusive: 39.8 µM [inhibitor, single point]
CCOC(=O)CSc1nc(N)nc(C)c1Cl	inconclusive: 50.1 µM [inhibitor, partial curve, poor fit]

Some of these compounds in order of SMILES length, ascending.
Compound	Potency
OCC#CCSc1nnc(-c2ccc(Br)cc2)o1	inconclusive: 39.8 µM [inhibitor, partial curve, poor fit]
CCc1cccc(CC)c1NC(=S)Nc1ccc2cn[nH]c2c1	inconclusive: 56.2 µM [inhibitor, partial curve, poor fit]
CC1(CNCc2ccccc2)COc2ccc(C(=O)NCc3ccncc3)cc2N1 (configuration not stated)	inactive
COc1ccc(Nc2nc(C(=O)OCC(=O)c3ccc(Cl)cc3)cs2)cc1	inconclusive: 5.01 µM [inhibitor, full curve, poor fit]
O=C(c1ccccc1F)N1CCN(c2ccc([N+](=O)[O-])c3ncccc23)CC1	inactive
